Data from article PMC6336889.
These are yes or no findings as the source states them, for the method shown. In cells and extracts the contact can be indirect. Some results given as binding are weak or reduced against the parent protein; the word gives no strength. For part of these data: Where a sequence is shown, tags or fusion partners need not be part of it. Values belong to the binder of their own block, whether it stands above or below them.

Assays:
Myc-HRAS = Myc-HRAS (UniProt P01112); assay: co-IP; HEK293 cells co-transfected with the tagged candidate and Myc-HRAS; whole cell lysates (RIPA buffer) immunoprecipitated with anti-Myc antibody; immunoblot
GST-NRAS = GST-NRAS (UniProt P01111); assay: pull-down; HEK293 whole cell lysates incubated with purified soluble recombinant GST-H, -K or -NRAS; immunoblot; only the target purified
GST-KRAS = GST-KRAS (UniProt P01116); assay: as above

binding (Myc-HRAS): binds
B1: HA-Rspo3 (protein, UniProt Q9BXY4 22-272)
chain: QNASRGRRQRRMHPNVSQGCQGGCATCSDYNGCLSCKPRLFFALERIGMKQIGVCLSSCPSGYYGTRYPDINKCTKCKADCDTCFNKNFCTKCKSGFYLHLGKCLDNCPEGLEANNHTMECVSIVHCEVSEWNPWSPCTKKGKTCGFKRGTETRVREIIQHPSAKGNLCPPTNETRKCTVQRKKCQKGERGKKGRERKRKKPNKGESKEAIPDSKSLESSKEIPEQRENKQQQKKRKVQDKQKSVSVSTVH

binding (GST-NRAS): binds | binding (GST-KRAS): binds
B2: endogenous WDR76 (HEK293 cells) (protein, UniProt Q9H967 1-626)
chain: MSRSGAAAEKADSRQRPQMKVNEYKENQNIAYVSLRPAQTTVLIKTAKVYLAPFSLSNYQLDQLMCPKSLSEKNSNNEVACKKTKIKKTCRRIIPPKMKNTSSKAESTLQNSSSAVHTESNKLQPKRTADAMNLSVDVESSQDGDSDEDTTPSLDFSGLSPYERKRLKNISENADFFASLQLSESAARLREMIEKRQPPKSKRKKPKRENGIGCRRSMRLLKVDPSGVSLPAAPTPPTLVADETPLLPPGPLEMTSENQEDNNERFKGFLHTWAGMSKPSSKNTEKGLSSIKSYKANLNGMVISEDTVYKVTTGPIFSMALHPSETRTLVAVGAKFGQVGLCDLTQQPKEDGVYVFHPHSQPVSCLYFSPANPAHILSLSYDGTLRCGDFSRAIFEEVYRNERSSFSSFDFLAEDASTLIVGHWDGNMSLVDRRTPGTSYEKLTSSSMGKIRTVHVHPVHRQYFITAGLRDTHIYDARRLNSRRSQPLISLTEHTKSIASAYFSPLTGNRVVTTCADCNLRIFDSSCISSKIPLLTTIRHNTFTGRWLTRFQAMWDPKQEDCVIVGSMAHPRRVEIFHETGKRVHSFGGEYLVSVCSINAMHPTRYILAGGNSSGKIHVFMNEKSC
